Measurements reported in PubChem BioAssay AID504808 (Drosophila RNAi Screening Center, 2011).

- Screen: 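Fly genes required to hold E2F transcription in check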 (primary screen)
- System: Drosophila S2 cells
- Knock-down reagent: long dsRNA against Drosophila genes
- Measurement: 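Firefly luciferase driven by E2F sites, normalised to Renilla luciferase on the same minimal promoter, measured by plate reader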
- Reading the numbers: E2F firefly: higher = more E2F reporter activity; Renilla normaliser: higher = more normaliser reporter signal
- Hit rule: 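Called active if the normalised E2F reporter went up by over 50%; the cutoff is arbitrary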
The screen tested about 21,000 reagents; below is an unselected part of those with a known target gene and a result. In the full data, 18 (0.084%) got an active call. 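Raw counts without plate normalisation, one of two replicates; the ratio scores behind the calls were not deposited.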 A number with no mark means an inactive call. A plus sign joins genes that one reagent is predicted to hit. Reagent sequences are not shown. Not stated in the record: the amount of reagent, the time to read-out.

With eIF2Bbeta (GeneID 31256) [DRSC18465], what does the deposit list?
E2F firefly, rep 1: 90247; Renilla normaliser, rep 1: 4497

How did the screen score Ubc87F (GeneID 41682) [DRSC16513]?
E2F firefly, rep 1: 1.24e5; Renilla normaliser, rep 1: 7099

With Ahcy (GeneID 32471) [DRSC19329], what does the deposit list?
E2F firefly, rep 1: 7678; Renilla normaliser, rep 1: 840

For CG15194 (retired record) (GeneID 32091) [DRSC19642], how do the results read?
E2F firefly, rep 1: 67901; Renilla normaliser, rep 1: 3745

With CG15194 (retired record) (GeneID 32091) [DRSC19777], what does the deposit list?
E2F firefly, rep 1: 1.48e5; Renilla normaliser, rep 1: 6820

For CG1806 (GeneID 32163) [DRSC19787], what was measured?
E2F firefly, rep 1: 7746; Renilla normaliser, rep 1: 812

With Lim1 (GeneID 31813) [DRSC17752], what does the deposit list?
E2F firefly, rep 1: 8276; Renilla normaliser, rep 1: 756

With Lim1 (GeneID 31813) [DRSC18677], what was measured?
E2F firefly, rep 1: 98501; Renilla normaliser, rep 1: 4782

What did the screen give for meep (GeneID 261663) [DRSC07948]?
E2F firefly, rep 1: 1.25e5; Renilla normaliser, rep 1: 4419

For CG15219 (GeneID 49992) [DRSC03715], what does the deposit list?
E2F firefly, rep 1: 99226; Renilla normaliser, rep 1: 3978

What did the screen give for CG14570 (GeneID 40416) [DRSC11731]?
E2F firefly, rep 1: 1.40e5; Renilla normaliser, rep 1: 7505

How did the screen score CG13324 (GeneID 36434) [DRSC06361]?
E2F firefly, rep 1: 1.04e5; Renilla normaliser, rep 1: 4101

With ERR (GeneID 38912) [DRSC10840], how do the results read?
E2F firefly, rep 1: 82643; Renilla normaliser, rep 1: 4137

What did the screen give for BomT3 (GeneID 42598) [DRSC13537]?
E2F firefly, rep 1: 89061; Renilla normaliser, rep 1: 2640

For BomT3 (GeneID 42598) [DRSC15871], what was measured?
E2F firefly, rep 1: 1.27e5; Renilla normaliser, rep 1: 7645

Entries above whose target name starts with B or b (2):
BomT3 (GeneID 42598) [DRSC13537]: E2F firefly, rep 1 = 89061; Renilla normaliser, rep 1 = 2640
BomT3 (GeneID 42598) [DRSC15871]: E2F firefly, rep 1 = 1.27e5; Renilla normaliser, rep 1 = 7645

Next entries:
What did the screen give for CG17167 (GeneID 3354991) [DRSC20902]?
E2F firefly, rep 1: 1.34e5; Renilla normaliser, rep 1: 4028

With CG17167 (GeneID 3354991) [DRSC20903], what does the deposit list?
E2F firefly, rep 1: 1.27e5; Renilla normaliser, rep 1: 4239

How did the screen score CG17065 (GeneID 33026) [DRSC20544]?
E2F firefly, rep 1: 1.45e5; Renilla normaliser, rep 1: 5469

With tctn + B9d2 [DRSC03160], how do the results read?
E2F firefly, rep 1: 1.65e5; Renilla normaliser, rep 1: 5189

Which result is listed for CG13557 (GeneID 37717) [DRSC04195]?
E2F firefly, rep 1: 1.12e5; Renilla normaliser, rep 1: 4292

With CG11041 (GeneID 37278) [DRSC06025], what does the deposit list?
E2F firefly, rep 1: 1.45e5; Renilla normaliser, rep 1: 5343

What is on record for wat (GeneID 43420) [DRSC14854]?
E2F firefly, rep 1: 96581; Renilla normaliser, rep 1: 4715

For SP1029 (GeneID 53473) [DRSC16848], what does the deposit list?
E2F firefly, rep 1: 1.36e5; Renilla normaliser, rep 1: 6830

What did the screen give for FMRFaR (GeneID 38357) [DRSC08555]?
E2F firefly, rep 1: 1.03e5; Renilla normaliser, rep 1: 4233

Which result is listed for cd (GeneID 42681) [DRSC16157]?
E2F firefly, rep 1: 1.12e5; Renilla normaliser, rep 1: 5847

For CR14033 (GeneID 10178827) [DRSC02358], how do the results read?
E2F firefly, rep 1: 90132; Renilla normaliser, rep 1: 3824

What did the screen give for CG15879 (GeneID 38274) [DRSC08487]?
E2F firefly, rep 1: 1.04e5; Renilla normaliser, rep 1: 4726

How did the screen score eIF2Bgamma (GeneID 36722) [DRSC07100]?
E2F firefly, rep 1: 70773; Renilla normaliser, rep 1: 3132
